Measured values from doi:10.1101/589754.

Target: T1, His6-mPOU WT (POU6F1/Brn-5), unphosphorylated or mock-phosphorylated (UniProt Q14863)
T1 sequence (looked up, limits assumed): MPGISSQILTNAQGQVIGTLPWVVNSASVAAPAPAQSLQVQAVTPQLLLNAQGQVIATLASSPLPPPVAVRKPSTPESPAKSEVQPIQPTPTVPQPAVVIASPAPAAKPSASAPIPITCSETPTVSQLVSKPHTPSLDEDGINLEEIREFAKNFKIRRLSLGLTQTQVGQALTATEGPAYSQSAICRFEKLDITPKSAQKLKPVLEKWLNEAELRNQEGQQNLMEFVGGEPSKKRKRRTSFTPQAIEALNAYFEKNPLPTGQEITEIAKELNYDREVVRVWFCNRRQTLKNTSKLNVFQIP
Test: EMSA

“GATCTGCTCCTGCATGCCTAATAGG (double strand) [Brn5 (mPOU) promoter probe]”: binds (WT, mutant comparison); binds (mock phosphorylation).

The exact form of at least one protein or probe is not confirmed. At least one verdict rests on a figure or table, not on a statement of the authors. Tags and fusion partners may be left off the protein sequences shown.
